Measured values as given in PMC2973830.
Read-outs that look alike come from different tables or passages of the source. Results are given in words; binding and its absence hold for the method and conditions named. Binding seen in cells or lysates may run through a third protein. Here binding means that the protein was enriched with, or labelled near, the bait; the list need not be complete. For some of these results: No binding means not detected with the bait. For some of these results: Where a sequence is shown, tags or fusion partners need not be part of it. Blank lines part the entries; values can stand above or below the molecule they belong to.

Protein sequences, listed by entry. Tags and fused reporters are not part of them. Lines headed by an entry give the natural chain unless they say otherwise; changes in a name come on top.
UniProt Q7RZU1: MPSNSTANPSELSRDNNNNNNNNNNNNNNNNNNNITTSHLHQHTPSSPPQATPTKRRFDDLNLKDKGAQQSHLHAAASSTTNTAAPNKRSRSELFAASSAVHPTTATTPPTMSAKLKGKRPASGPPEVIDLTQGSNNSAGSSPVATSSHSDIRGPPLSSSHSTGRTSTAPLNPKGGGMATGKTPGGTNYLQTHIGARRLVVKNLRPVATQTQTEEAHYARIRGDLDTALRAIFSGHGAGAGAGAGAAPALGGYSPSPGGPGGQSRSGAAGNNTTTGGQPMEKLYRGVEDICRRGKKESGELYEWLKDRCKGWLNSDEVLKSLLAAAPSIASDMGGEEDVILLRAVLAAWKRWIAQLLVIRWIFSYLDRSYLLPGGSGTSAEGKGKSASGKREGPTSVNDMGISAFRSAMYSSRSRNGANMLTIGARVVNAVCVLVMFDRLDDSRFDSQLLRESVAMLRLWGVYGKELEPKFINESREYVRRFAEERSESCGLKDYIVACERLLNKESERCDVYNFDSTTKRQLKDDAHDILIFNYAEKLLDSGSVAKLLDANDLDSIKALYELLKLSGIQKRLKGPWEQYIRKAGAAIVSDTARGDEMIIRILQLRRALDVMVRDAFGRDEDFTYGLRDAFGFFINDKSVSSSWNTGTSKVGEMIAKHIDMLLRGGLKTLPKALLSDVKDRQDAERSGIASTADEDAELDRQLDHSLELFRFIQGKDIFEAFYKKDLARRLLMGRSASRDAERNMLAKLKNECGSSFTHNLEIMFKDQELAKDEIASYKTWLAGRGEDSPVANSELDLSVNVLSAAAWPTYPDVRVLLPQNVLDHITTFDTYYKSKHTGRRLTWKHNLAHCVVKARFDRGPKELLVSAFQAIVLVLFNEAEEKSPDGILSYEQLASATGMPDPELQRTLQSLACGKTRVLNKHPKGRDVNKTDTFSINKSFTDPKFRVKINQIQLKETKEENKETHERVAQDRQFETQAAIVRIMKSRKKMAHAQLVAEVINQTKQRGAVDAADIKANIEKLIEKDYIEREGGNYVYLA
UniProt Q7RVK6: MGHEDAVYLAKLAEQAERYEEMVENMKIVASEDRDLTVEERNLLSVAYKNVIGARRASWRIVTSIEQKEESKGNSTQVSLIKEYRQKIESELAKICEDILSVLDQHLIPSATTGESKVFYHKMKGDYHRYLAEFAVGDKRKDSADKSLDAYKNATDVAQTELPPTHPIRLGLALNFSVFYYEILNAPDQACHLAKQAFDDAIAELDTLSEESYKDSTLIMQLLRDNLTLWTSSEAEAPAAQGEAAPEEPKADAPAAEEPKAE

Experiments:
Experiment in all cases: affinity purification with mass spectrometry; HAT-FLAG tandem-affinity-tagged bait (DIM-5 or CUL4) purified in two steps from a Neurospora strain; SDS-PAGE, gel slices digested with trypsin, nano-HPLC and ion trap MS/MS, Mascot search of UniProt
[1] = target: CUL4 fused to a tandem HAT-FLAG affinity tag (N. crassa) (UniProt Q7RZU1)
[2] = target: T1, DIM-5 fused to a HAT-FLAG tandem affinity tag (N. crassa) (UniProt Q8X225)
T1 sequence: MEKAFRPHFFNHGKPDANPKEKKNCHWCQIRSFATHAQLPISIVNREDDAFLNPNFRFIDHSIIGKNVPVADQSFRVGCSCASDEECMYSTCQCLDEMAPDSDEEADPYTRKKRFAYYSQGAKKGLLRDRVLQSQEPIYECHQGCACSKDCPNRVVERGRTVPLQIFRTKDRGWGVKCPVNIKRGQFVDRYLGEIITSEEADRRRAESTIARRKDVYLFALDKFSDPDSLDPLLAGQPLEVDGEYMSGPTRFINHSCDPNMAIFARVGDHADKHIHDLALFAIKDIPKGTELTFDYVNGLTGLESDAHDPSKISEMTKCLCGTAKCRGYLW

[3] = target: CUL4 fused to a tandem HAT-FLAG affinity tag (N. crassa) (UniProt Q7RZU1); remark: listed apart in the source

binding [1]: no binding
binding [2]: binds
Molecule: NFH-2 (Neurospora fourteen-three-three homolog-2) (from UniProt Q7RVK6 1-262)

binding [3]: no binding
B1: DIM-5 (enzyme, UniProt Q8X225 1-331)
chain: T1 sequence

binding [3]: binds
B2: DIM-7 (protein, UniProt Q1K7K7 1-666)
chain: MAGPGRPRRRRGSSASIDSTDDRRRRWTRELAILKPVTPGTSDDLWPYFAVLTDATIYQKDGKTLANPLHVDLEGPFIVRGKLEPVEDGDDEARECFHKPYNKATYIEISRSERYSIGYEPNTLWVSGASGWFEIIPSRKYETMYNEVMEAITLYYGIMGPYEEHKRLLKKADKKKRKDVKPPSLDEIFFSYALTAGDGAVTVKEEVEARCLKWAQFLLAHFPKESEIRWQDTGFAAWLQSARPDLQKKISDVAAGLLTKPAAEPEGLLARDDHSPQPQSLAIREPPKGGRTTRTSRQASELSDQRSDKGKGIARDSPVETPIPAPVSNRHLSSSSPRPRASPAVITGSDDLPDDPVDRLIVLLGEVAQRIDIKTVKMSKINSDLFYNCRIKYYNAARELCEHFAKDLLERLPPMWDNTPYRAWLEDVVENGRPAPVEFVVEDIPQYLTRRTRRQTHISRLSSALGPTPSVEAESKDEVRAGKQPRVGRPSGKVATLRVAGSKRLASDMIDEDELPPRRGRKALKRTVRVEEDEDSDANSVIIDMTDNTGVIPKDAVRIVVQAERLPTMSPAGPNGTWTCDQEGCNYVVRSADEPEGQDLISKHFKDHEEQAQKINLAMEESKAGHLPINHLLDKIQAMGKNALAKKRGSLNGEPLPLPIKRRLLI
